Results deposited as PubChem BioAssay AID1259308 (NCATS, 2017).
Test: 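Candidate targets for better recombinant protein yield in mammalian cells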 (primary screen). Cell system: human HEK293 embryonic kidney cells stably expressing firefly luciferase (HEK-CMV-Luc2-Hygro). Reagent: single siRNA against human genes, 0.8 pmol siRNA per well. Time to read-out: 72 h. Measurement: 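Reporter luminescence and viable-cell signal on separate replicate plates, given as percent of non-targeting control and median/MAD z-scores, plus per-cell luciferase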. Scale: total luciferase, z-score and total luciferase, % of control: higher = more reporter protein produced. Rule for the call: 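An siRNA counts as active if its total luciferase robust z-score exceeds 3; genes with two or more such siRNAs out of three were retested with fresh siRNAs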. Calls: active = raised luciferase; inactive = no rise.
This is one part, drawn at random, of about 59,000 reagents tested. In the full data, about 1,510 (2.6%) are marked active. 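Calls use total luciferase alone and ignore viability, so some active siRNAs may act by altering cell number.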 Reagents against one gene are numbered here. Not all columns of the deposit are shown.

TIMM29 #1 gave total luciferase, z-score 0.00128; total luciferase, % of control 81.9; inactive.
Against TIMM29 #2 the deposit lists total luciferase, z-score 0.0132; total luciferase, % of control 82.2; inactive.
TIMM29 #3 showed total luciferase, z-score -0.552; total luciferase, % of control 70.9; inactive.
TECR #1 showed total luciferase, z-score 1.46; total luciferase, % of control 111; inactive.
For TECR #2, the entry reads total luciferase, z-score 1.03; total luciferase, % of control 102; inactive.
With knock-down of TECR #3 the results were total luciferase, z-score -2.05; total luciferase, % of control 41.1; inactive.
Knock-down of ZNF30 #1 gave: total luciferase, z-score -2.28; total luciferase, % of control 36.4; inactive.
Silencing of ZNF30 #2 gave: total luciferase, z-score -0.712; total luciferase, % of control 67.7; inactive.
Silencing of ZNF30 #3 came out at: total luciferase, z-score 0.351; total luciferase, % of control 88.9; inactive.
Depletion of INSL6 #1 resulted in: total luciferase, z-score -0.0352; total luciferase, % of control 81.2; inactive.
With knock-down of INSL6 #2 the results were total luciferase, z-score 0.307; total luciferase, % of control 88; inactive.
For INSL6 #3 the deposit lists total luciferase, z-score -0.48; total luciferase, % of control 72.3; inactive.
Knock-down of CLEC12B #1 came out at: total luciferase, z-score 0.3; total luciferase, % of control 87.9; inactive.
Silencing of CLEC12B #2 resulted in: total luciferase, z-score -0.287; total luciferase, % of control 76.2; inactive.
CLEC12B #3 showed total luciferase, z-score -0.856; total luciferase, % of control 64.9; inactive.
Depletion of NOTCH2 #1 came out at: total luciferase, z-score -0.341; total luciferase, % of control 75.1; inactive.
Against NOTCH2 #2 the deposit lists total luciferase, z-score 0.568; total luciferase, % of control 93.2; inactive.
Knock-down of NOTCH2 #3 came out at: total luciferase, z-score 0.61; total luciferase, % of control 94; inactive.
SAP130 #1 scored total luciferase, z-score -0.183; total luciferase, % of control 78.3; inactive.
For SAP130 #2, the entry reads total luciferase, z-score 1.2; total luciferase, % of control 106; inactive.
SAP130 #3 scored total luciferase, z-score -1.69; total luciferase, % of control 48.3; inactive.
After knock-down of PHF1 #1 the results were total luciferase, z-score -0.12; total luciferase, % of control 79.5; inactive.
PHF1 #2 showed total luciferase, z-score -1.37; total luciferase, % of control 54.7; inactive.
After knock-down of PHF1 #3, the screen gave total luciferase, z-score -1.33; total luciferase, % of control 55.4; inactive.
With knock-down of DERL3 #1 the results were total luciferase, z-score -0.535; total luciferase, % of control 71.2; inactive.
DERL3 #2 gave total luciferase, z-score -2.2; total luciferase, % of control 38.1; inactive.
DERL3 #3 gave total luciferase, z-score 0.708; total luciferase, % of control 96; inactive.
With knock-down of SYT12 #1, the record shows total luciferase, z-score 1.5; total luciferase, % of control 112; inactive.
After knock-down of SYT12 #2, the record shows total luciferase, z-score -0.453; total luciferase, % of control 72.9; inactive.
For SYT12 #3 the deposit lists total luciferase, z-score 0.576; total luciferase, % of control 93.3; inactive.
CD59 #1 scored total luciferase, z-score -0.179; total luciferase, % of control 78.3; inactive.
Silencing of CD59 #2 came out at: total luciferase, z-score -1.03; total luciferase, % of control 61.4; inactive.
Against CD59 #3 the deposit lists total luciferase, z-score -2.19; total luciferase, % of control 38.3; inactive.

Taken from above.
Value of ZNF30 #2 in “total luciferase, z-score”: -0.712
NOTCH2 #3, total luciferase, % of control = 94
CD59 #1, total luciferase, z-score: -0.179
CLEC12B #3, outcome = inactive
